For 9 targets, log2 fold change results are on record in the supplement of paper PMC10849652.

By UniProt entry, the sequences of proteins in these tests, tags left out. Where a name states a change or a piece, a line headed by the entry shows the natural chain unless it says otherwise.
UniProt P00374: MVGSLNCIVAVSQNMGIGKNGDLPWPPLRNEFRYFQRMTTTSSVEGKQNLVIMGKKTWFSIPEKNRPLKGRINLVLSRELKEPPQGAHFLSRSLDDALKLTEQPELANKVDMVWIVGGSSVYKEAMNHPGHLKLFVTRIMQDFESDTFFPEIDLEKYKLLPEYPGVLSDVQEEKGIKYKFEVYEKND
UniProt O75911: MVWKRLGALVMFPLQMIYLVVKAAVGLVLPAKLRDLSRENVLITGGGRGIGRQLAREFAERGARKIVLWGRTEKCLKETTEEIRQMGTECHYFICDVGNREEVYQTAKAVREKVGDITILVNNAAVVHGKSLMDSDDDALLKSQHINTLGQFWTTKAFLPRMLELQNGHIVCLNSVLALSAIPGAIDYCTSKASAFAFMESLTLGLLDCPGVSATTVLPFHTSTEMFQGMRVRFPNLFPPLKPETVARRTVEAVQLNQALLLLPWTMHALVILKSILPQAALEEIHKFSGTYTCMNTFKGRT
UniProt P49366: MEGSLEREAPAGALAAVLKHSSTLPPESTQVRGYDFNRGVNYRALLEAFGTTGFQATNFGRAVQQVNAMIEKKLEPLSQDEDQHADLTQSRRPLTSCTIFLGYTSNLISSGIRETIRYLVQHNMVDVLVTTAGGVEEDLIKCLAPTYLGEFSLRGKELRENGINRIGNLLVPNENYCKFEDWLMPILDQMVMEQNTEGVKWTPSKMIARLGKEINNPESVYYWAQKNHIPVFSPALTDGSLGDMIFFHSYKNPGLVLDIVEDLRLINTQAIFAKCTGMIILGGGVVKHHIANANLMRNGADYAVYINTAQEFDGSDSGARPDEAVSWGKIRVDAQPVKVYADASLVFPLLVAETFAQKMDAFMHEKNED
UniProt Q96JB1: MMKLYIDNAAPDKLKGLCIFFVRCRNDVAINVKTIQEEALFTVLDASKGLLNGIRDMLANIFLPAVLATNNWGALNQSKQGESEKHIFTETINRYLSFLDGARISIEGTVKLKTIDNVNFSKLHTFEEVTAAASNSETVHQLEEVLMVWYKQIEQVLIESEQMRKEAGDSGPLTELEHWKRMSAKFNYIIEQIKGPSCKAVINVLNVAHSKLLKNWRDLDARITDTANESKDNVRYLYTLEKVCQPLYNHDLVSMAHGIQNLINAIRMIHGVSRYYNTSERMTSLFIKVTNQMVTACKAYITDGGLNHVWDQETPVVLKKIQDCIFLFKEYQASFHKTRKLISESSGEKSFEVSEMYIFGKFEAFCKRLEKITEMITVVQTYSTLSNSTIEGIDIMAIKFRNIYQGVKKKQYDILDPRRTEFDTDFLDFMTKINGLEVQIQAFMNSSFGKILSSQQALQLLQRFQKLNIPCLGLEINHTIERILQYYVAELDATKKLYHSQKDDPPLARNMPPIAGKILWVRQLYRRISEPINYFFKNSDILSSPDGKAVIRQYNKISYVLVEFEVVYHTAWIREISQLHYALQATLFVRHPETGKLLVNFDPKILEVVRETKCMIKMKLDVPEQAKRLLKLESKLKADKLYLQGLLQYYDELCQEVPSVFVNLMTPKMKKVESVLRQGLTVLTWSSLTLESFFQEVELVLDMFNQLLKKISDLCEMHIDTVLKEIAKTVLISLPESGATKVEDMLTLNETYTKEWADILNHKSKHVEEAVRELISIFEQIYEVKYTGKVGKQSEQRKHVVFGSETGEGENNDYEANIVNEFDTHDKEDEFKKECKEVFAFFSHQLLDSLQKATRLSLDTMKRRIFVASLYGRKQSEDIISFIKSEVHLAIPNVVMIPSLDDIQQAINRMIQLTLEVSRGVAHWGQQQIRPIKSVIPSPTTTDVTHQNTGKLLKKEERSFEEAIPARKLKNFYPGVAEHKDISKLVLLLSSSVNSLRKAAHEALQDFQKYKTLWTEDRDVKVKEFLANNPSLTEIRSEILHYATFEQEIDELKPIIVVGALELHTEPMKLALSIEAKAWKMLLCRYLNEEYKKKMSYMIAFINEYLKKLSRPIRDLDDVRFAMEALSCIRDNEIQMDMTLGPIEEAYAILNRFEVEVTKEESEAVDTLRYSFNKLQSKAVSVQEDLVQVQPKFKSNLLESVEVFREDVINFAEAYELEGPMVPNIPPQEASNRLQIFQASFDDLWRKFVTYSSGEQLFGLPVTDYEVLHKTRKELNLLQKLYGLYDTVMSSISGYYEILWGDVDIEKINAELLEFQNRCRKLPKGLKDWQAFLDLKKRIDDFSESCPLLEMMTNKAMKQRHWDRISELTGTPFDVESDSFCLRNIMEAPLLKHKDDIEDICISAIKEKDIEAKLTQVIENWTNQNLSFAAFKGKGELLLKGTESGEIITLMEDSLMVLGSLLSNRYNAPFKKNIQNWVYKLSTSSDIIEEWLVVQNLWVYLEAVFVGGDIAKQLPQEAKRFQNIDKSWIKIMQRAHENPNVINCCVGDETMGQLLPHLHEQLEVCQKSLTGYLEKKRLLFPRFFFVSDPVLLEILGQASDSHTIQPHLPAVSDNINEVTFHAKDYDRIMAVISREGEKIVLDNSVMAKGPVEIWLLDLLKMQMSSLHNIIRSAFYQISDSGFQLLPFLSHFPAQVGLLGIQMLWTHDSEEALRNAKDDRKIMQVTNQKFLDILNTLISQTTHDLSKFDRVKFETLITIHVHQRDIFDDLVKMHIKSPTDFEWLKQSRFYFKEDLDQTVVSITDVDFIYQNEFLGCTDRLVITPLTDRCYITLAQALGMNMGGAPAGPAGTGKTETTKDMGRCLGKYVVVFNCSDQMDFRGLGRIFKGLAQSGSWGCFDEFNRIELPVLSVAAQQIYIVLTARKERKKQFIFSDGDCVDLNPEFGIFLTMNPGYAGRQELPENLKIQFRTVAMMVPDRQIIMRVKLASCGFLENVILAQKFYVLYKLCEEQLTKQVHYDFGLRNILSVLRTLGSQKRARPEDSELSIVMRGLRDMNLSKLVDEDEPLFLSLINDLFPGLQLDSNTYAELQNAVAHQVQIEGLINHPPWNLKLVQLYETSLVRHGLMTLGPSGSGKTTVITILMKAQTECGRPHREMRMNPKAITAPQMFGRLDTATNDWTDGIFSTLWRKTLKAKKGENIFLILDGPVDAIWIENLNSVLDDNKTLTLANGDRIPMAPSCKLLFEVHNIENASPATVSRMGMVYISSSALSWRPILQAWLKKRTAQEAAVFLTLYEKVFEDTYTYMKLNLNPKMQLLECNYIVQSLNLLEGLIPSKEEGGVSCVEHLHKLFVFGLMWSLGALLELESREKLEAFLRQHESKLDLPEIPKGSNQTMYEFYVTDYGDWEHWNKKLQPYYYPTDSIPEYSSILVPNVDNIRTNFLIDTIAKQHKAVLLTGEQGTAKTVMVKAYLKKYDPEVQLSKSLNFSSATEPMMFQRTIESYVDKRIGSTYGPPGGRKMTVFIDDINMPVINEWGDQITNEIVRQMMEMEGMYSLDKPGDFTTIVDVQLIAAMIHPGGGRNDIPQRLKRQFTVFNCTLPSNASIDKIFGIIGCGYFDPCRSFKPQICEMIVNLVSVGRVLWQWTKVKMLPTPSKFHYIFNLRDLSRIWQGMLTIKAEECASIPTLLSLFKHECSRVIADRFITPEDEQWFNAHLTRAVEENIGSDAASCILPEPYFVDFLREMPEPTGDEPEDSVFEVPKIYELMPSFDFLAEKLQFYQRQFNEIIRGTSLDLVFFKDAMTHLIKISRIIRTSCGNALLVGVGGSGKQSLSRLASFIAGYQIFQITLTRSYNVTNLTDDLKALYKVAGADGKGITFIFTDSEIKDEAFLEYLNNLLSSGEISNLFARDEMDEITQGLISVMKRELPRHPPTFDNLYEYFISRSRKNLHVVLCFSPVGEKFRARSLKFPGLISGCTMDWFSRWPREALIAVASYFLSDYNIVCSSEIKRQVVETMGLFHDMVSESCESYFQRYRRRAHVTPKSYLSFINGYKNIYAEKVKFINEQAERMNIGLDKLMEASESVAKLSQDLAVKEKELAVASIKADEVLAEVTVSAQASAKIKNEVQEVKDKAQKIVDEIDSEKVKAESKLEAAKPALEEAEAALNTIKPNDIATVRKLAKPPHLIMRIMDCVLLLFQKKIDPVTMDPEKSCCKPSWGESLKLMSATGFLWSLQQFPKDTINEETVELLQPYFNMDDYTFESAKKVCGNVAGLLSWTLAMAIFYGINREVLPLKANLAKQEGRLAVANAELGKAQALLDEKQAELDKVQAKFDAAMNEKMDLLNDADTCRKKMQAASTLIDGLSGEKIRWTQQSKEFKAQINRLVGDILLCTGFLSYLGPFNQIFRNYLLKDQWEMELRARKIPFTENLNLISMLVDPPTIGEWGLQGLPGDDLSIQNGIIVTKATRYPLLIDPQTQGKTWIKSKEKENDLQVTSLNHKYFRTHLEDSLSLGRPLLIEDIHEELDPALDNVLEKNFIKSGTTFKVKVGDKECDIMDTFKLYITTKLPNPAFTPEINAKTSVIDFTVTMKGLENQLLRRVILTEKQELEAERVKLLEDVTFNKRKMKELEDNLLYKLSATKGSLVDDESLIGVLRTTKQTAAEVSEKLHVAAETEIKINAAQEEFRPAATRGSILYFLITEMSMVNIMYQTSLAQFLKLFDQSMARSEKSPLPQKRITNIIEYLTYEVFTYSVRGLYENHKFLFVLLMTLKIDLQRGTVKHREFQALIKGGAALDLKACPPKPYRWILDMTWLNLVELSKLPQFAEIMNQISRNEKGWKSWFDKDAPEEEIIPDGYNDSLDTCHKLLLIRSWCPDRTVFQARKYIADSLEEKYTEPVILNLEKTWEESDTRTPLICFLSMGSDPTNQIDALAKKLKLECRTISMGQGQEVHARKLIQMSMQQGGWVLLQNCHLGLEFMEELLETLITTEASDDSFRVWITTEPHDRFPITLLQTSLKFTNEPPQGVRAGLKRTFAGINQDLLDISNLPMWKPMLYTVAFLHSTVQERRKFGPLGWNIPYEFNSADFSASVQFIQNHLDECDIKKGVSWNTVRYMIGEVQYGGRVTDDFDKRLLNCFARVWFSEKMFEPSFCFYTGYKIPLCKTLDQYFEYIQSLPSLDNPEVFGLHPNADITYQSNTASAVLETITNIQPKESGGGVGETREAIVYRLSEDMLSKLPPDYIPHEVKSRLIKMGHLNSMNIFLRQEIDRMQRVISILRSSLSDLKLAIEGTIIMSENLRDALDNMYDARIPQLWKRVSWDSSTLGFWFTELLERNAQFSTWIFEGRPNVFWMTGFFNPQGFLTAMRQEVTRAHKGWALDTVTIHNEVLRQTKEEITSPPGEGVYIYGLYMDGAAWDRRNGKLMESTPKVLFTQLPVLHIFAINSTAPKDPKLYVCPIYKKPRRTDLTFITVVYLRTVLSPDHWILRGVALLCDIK
UniProt Q9NVM6: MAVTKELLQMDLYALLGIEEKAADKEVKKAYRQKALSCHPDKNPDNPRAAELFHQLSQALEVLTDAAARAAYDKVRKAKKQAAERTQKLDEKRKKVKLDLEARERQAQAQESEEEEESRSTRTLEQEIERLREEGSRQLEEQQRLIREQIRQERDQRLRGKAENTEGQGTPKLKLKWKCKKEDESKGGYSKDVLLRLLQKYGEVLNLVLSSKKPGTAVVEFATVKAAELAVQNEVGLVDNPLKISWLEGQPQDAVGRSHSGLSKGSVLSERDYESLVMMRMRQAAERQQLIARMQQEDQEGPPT
UniProt O00115: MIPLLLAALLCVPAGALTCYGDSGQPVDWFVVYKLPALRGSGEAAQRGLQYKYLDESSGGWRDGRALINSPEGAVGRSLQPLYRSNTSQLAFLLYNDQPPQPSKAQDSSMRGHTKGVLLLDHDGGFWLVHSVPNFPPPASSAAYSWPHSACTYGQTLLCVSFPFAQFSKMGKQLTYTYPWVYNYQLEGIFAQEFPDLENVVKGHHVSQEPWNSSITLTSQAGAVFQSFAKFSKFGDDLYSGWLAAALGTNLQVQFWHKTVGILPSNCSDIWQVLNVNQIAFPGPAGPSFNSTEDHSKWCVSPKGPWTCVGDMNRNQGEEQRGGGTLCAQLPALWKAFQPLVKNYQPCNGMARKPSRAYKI

The other results are listed elsewhere or left out.

Common to all, as to test: log2 fold change, soluble protein after heating vs DMSO (PISA); higher = thermal stabilisation; K562 lysate, 10 uM; active = over 0.2 and 3.5 SD of the protein, either way, in both replicates (recomputed)
Compound in test [1]: NCC(=O)Nc1ccc(-n2nc(C(F)(F)F)cc2-c2ccc3c(ccc4ccccc43)c2)cc1
In short, it runs like this: (§1)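 K562 pellets were dounce-homogenised in PBS pH 7.4 containing 1 mM MgCl2, and the crude extract, at 1 mg/mL protein, was exposed to 10 μM compound for 30 min. Aliquots were heated for 3 min across 48°C-58°C, pooled, brought to 0.5% NP-40 at 4°C and spun at 21,000xg for 90 min, with the supernatant taken as soluble protein. TMTpro 16plex LC-MS/MS with equalised channel sums quantified that protein. Values are log-two fold changes in thermal stability relative to solvent controls, taken from duplicates.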

Compound in another test: O=C(CCCCCCC(=O)Nc1ccccc1)NO [vorinostat]
In short, it runs like this: as §1

Compound in another test: O=C(O)c1ccc2c(c1)nc(Nc1cccc(Cl)c1)c1ccncc12 [silmitasertib]
In short, it runs like this:
as §1

Compound in test [2]: O=C1NC(=O)C(c2cnc3ccccn23)=C1c1cn2c3c(cc(F)cc13)CN(C(=O)N1CCCCC1)CC2
In short, it runs like this:
as §1

Compound in another test: c1cn2cc(-c3ccc4cn[nH]c4c3)nc(Nc3ccc(N4CCOCC4)cc3)c2n1 [entospletinib]
In short, it runs like this: as §1

For the target DNA2 (UniProt P51530), the log2 fold change in test [1] was inactive: -0.059; with vorinostat it was active: -0.448; with silmitasertib it was inactive: 0.127; in test [2], inactive: -0.027; in the test with entospletinib, inactive: -0.053.

For the target DHFR (UniProt P00374), the log2 fold change in test [1] was inactive: -0.045; in the test with vorinostat, inactive: -0.214; with silmitasertib, inactive: 0.133; in test [2], inactive: 0; with entospletinib, inactive: 0.002.

In the case of DHRS3 (UniProt O75911), the log2 fold change in test [1] is inactive: 0.032; with vorinostat, inactive: -0.055; in the test with silmitasertib, inactive: -0.062; in test [2] it was inactive: 0.025; with entospletinib, inactive: 0.096.

On to DMXL1 (UniProt Q9Y485), for which the log2 fold change in test [1] is inactive: 0.022; in the test with vorinostat, active: -0.237; in the test with silmitasertib, inactive: 0.044; in test [2] it was inactive: -0.013; in the test with entospletinib, inactive: 0.022.

Regarding DHPS (UniProt P49366), the log2 fold change in test [1] is inactive: -0.009; with vorinostat it was inactive: 0.06; with silmitasertib it was inactive: -0.003; in test [2], inactive: 0.021; with entospletinib, inactive: 0.008.

Consider DNAH8 (UniProt Q96JB1), for which the log2 fold change in test [1] is inactive: 0.134; with vorinostat, inactive: 0.284; with silmitasertib it was inactive: -0.143; in test [2], inactive: 0.094; with entospletinib it was inactive: -0.015.

Consider DNAJC17 (UniProt Q9NVM6), for which the log2 fold change in test [1] is inactive: 0; with vorinostat, inactive: -0.02; in the test with silmitasertib, inactive: -0.025; in test [2] it was inactive: -0.1; with entospletinib it was inactive: 0.027.

DIAPH1 (UniProt O60610): the log2 fold change in test [1] is inactive: 0.013; with vorinostat, inactive: -0.014; with silmitasertib, inactive: 0.009; in test [2], inactive: -0.02; with entospletinib, inactive: -0.003.

For the target DNASE2 (UniProt O00115), the log2 fold change is inactive: -0.03 in test [1]; inactive: 0.158 with vorinostat; inactive: 0 in the test with silmitasertib; inactive: -0.075 in test [2]; inactive: 0.021 with entospletinib.
